Experiment [1] concerns the target endogenous KDM5C (AML cell lines NB4 and THP-1) (human (endogenous in NB4 and THP-1)) (UniProt P41229). As to the kind of experiment: co-IP; endogenous proteins; 1 ug IgG or KDM5C antibody and protein A/G agarose beads on lysates of NB4 or THP-1 cells, western blotting. On the technique in general: Immunoblotting shows a protein as a band on a membrane.
The next experiment has as its target T1, FLAG-PICALM (UniProt Q13492).
T1 sequence: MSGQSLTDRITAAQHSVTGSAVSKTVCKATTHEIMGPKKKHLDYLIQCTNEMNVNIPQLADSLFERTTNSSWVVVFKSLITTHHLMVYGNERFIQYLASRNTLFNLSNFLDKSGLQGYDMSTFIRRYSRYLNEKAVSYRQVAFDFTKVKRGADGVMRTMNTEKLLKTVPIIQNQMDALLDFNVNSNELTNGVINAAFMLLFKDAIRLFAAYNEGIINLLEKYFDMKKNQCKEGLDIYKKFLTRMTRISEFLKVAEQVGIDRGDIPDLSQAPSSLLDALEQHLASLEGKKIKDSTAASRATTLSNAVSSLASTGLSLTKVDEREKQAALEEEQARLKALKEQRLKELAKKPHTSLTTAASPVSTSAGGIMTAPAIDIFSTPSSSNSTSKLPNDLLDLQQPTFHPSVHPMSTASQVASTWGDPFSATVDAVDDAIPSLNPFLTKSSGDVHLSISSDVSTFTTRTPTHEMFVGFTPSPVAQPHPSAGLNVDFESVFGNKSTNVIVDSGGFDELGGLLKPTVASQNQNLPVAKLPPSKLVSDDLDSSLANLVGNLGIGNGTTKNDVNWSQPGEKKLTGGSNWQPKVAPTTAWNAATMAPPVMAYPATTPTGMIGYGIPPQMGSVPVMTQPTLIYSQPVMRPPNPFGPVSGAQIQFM
As to the kind of experiment: co-IP; FLAG affinity gel on RIPA lysates (500 ug protein) of transfected HEK293T cells, overnight at 4 °C, washed three times, western blotting.

Protein sequences, listed by entry. Tags and fused reporters are not part of them.
UniProt P41229: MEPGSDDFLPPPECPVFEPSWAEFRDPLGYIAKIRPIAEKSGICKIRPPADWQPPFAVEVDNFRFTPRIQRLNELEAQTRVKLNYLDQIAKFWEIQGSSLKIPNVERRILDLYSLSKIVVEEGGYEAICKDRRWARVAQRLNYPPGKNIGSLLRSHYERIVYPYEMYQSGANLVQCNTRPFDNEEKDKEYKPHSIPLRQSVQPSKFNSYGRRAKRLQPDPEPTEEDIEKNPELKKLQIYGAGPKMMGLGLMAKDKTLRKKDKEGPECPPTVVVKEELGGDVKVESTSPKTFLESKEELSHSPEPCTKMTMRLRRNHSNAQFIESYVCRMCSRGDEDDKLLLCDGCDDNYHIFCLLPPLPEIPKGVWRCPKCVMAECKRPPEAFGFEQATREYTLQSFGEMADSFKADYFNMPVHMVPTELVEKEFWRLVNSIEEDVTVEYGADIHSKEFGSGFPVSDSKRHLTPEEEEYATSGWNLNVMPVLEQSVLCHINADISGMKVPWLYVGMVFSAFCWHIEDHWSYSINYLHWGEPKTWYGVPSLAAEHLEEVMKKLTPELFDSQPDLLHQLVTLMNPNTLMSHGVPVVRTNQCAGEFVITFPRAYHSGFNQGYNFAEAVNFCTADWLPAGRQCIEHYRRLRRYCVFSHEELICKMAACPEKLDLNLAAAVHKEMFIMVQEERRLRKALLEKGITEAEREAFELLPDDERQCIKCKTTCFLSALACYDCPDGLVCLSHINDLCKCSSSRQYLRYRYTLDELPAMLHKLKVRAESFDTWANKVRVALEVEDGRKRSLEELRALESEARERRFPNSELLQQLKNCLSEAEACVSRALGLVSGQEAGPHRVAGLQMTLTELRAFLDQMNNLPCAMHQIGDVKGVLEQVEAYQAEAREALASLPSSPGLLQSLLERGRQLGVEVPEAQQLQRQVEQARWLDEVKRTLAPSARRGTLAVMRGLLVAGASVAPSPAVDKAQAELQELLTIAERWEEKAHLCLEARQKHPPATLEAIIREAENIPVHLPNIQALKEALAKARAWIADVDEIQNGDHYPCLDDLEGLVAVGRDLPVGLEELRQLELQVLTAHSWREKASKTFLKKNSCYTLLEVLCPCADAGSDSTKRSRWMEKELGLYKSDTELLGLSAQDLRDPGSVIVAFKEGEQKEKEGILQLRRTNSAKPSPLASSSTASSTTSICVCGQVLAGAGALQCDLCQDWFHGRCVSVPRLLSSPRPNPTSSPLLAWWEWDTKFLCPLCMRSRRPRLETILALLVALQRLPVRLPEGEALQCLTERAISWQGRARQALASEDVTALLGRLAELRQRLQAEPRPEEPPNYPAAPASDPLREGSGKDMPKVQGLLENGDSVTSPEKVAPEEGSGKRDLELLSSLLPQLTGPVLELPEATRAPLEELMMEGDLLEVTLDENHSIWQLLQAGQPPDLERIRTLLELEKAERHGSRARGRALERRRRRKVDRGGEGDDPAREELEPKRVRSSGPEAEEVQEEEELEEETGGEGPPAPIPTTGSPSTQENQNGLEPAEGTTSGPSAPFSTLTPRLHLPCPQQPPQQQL
UniProt Q96SW2: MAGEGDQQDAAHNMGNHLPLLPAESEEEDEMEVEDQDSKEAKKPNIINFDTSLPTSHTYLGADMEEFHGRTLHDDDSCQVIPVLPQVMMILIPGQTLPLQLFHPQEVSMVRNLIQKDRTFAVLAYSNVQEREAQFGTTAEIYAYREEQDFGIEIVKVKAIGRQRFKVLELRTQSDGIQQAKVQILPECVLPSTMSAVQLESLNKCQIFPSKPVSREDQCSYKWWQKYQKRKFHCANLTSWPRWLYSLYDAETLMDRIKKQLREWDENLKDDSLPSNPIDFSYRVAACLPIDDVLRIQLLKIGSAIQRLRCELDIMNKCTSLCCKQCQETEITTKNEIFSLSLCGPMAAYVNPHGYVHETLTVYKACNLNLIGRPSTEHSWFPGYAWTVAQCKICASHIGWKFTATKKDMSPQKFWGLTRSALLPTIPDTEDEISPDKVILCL

The target of a further experiment is FLAG-KDM5C (UniProt P41229). Described as above.
For another experiment, the target named is T2, FLAG-NAC1 (UniProt Q96RE7).
T2 sequence: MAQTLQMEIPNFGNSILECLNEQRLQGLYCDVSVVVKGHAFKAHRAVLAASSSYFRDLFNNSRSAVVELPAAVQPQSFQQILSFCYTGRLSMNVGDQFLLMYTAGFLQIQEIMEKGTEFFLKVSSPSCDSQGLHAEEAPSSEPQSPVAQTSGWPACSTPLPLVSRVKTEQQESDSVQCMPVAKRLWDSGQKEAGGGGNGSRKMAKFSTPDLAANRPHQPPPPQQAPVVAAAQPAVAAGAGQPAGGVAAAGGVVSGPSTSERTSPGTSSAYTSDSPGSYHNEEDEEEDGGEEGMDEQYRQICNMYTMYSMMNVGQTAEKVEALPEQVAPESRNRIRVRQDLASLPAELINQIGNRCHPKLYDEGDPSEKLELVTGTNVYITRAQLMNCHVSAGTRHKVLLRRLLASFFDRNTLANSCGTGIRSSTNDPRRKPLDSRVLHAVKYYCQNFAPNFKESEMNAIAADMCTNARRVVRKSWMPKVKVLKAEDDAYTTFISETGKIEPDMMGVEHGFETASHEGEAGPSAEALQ
The experiment is described as above.

These are yes or no findings as the source states them, for the method shown. In cells and extracts the contact can be indirect. Some results given as binding are weak or reduced against the parent protein; the word gives no strength. For some of these results: Tags and fused reporters may be left off the sequences shown.

Consider “endogenous CRBN (AML cell lines NB4 and THP-1) (from UniProt Q96SW2 1-442)”, for which, in experiment [1], the binding entry is “binds”.

For HA-CRBN (from UniProt Q96SW2 1-442), the binding entry with FLAG-PICALM, with FLAG-KDM5C and in the experiment with FLAG-NAC1 was “binds” throughout.

The values above are taken from article PMC11780777.
